Data set [1] has as its target T1, Lin28A ZKD (Homo sapiens) (UniProt Q9H9Z2).
T1 sequence (looked up): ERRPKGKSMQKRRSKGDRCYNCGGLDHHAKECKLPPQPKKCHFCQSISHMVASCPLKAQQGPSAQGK
The data set can be described thus: fluorescence polarization. To be noted: 10 uM protein, 1 nM probe, signal suppressed by Ln7, Ln15, Ln115; FP: 30 uL, room temperature, 20 min, buffer not stated; recombinant protein; residues 121-187; protein details: His.

Data set [2] addresses T2, Lin28B CSD+ZKD (Homo sapiens) (UniProt Q6ZN17).
T2 sequence (looked up): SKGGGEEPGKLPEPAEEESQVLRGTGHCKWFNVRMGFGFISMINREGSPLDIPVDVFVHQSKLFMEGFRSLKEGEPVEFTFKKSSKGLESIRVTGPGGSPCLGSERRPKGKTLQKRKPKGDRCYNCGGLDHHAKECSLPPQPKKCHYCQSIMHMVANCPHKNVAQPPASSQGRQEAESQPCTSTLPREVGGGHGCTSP
In words: fluorescence polarization. The note with it: compound screening assay; FP: 30 uL, room temperature, 20 min, buffer not stated; recombinant protein; residues 7-204; protein details: His. For orientation: In fluorescence polarisation assays a small probe gives low polarisation when free and higher when bound to something large.

For at least one entry, the source does not settle the construct or the ends of the probe. At least one verdict was read from the data and is not stated in words by the source. Where a protein sequence is shown, tags need not be part of it.

This note sets out measurements from article PMC9688808, “Discovery of Novel Lin28 Inhibitors to Suppress Cancer Cell Stemness” (Cancers, 2022).

As to “UUAGGGCACGAGAUUUUGCCCACAAGGAGUU [FAM-Let-7 probe]”, the binding result in data set [1] and in data set [2] was “binds” throughout.
